Results from publication PMC12040169 (PLOS Biology, 2025).
The other results are listed elsewhere or left out.

system: T1, CTL2-GFP (C. trachomatis L2/434/Bu, GFP-expressing); set-up: species or system HeLa; Intracellular C. trachomatis growth in HeLa cells, bulk GFP fluorescence relative to DMSO; conditions: bulk GFP, single well; 28.5 h, 10 µM; inhibitor
T1 construct: L2/434/Bu, GFP-expressing

| SMILES | % of control remaining [%] |
| --- | --- |
| Nn1c(CSc2ccccn2)nnc1CSc1ccccn1 [CBK266987] | 132.049 |
| Cc1cccc2c(C(=O)NCc3ccc(S(N)(=O)=O)cc3)cc(-c3ccccc3Cl)nc12 [CBK267743] | 98.9659 |
| O=C(O)c1ccc(S(=O)(=O)c2ccc(Oc3ccc4c(c3)C(=O)N(c3cccc(C(=O)O)c3)C4=O)cc2)cc1 [CBK263608] | 100 |
| Cc1ccc(-c2ccc(CCC(=O)O)n2CC2CCCO2)cc1 (stereo not drawn) [CBK268636] | 135.968 |
| CN(C(=O)C1(C)CCOCC1)c1nc2c(s1)CC(c1ccccc1)CC2 (stereo not drawn) [CBK305531] | 131.494 |
| COCCNC(=O)N1CCCC(CO)C1 (stereo not drawn) [CBK156040] | 125.537 |
| CC(=O)Nc1ccc(-c2ccc(C(=O)NCc3ccc(C(C)C)cc3)cn2)cc1 [CBK158857] | 80.1668 |
| Cc1ccnc2nc(C(=O)OCC(=O)Nc3cccc(C#N)c3)nn12 [CBK305068] | 142.38 |
| COc1cc(-c2nccnc2NCC2CCCCC2)cc(OC)c1OC [CBK037647] | 100.21 |
| CNC(=O)c1cnc(SC)nc1NCCc1c[nH]c2ccccc12 [CBK093597] | 60.6313 |
| CS(=O)(=O)CCS(=O)(=O)N1CCOCC1c1cccc(F)c1 (stereo not drawn) [CBK304111] | 149.792 |
| CCc1nc2ccc(C(=O)N(C)CCN(C)C)cn2c1N(C)Cc1cc2ccccc2s1 [CBK146551] | 111.495 |
| O=C(O)C(c1c[nH]c2cc(CO)ccc12)N1CCCN(c2ccc(C(F)(F)F)cn2)CC1 (stereo not drawn) [CBK286845] | 143.203 |
| COCc1cccc(-c2nccnc2OC2CCCCC2)c1 [CBK106959] | 127.703 |
| Cc1ccc(-c2nsc(SCC(=O)c3ccc(Cl)cc3)n2)cc1 [CBK113177] | 122.595 |
| Cc1ccc(SCCNC(=O)C(C)Sc2ccc(Cl)cc2)cc1 (stereo not drawn) [CBK264104] | 100 |
| CN(C)[C@H]1CCN(C(=O)c2ccc(Nc3cncc(Cl)n3)cn2)C1 [CBK172073] | 131.934 |
| Cc1cc(CN(C)Cc2cnn(-c3ccc(F)cc3)c2)n[nH]1 [CBK281706] | 104.639 |
| COc1ccc2c(c1)C1(CC(=O)N(Cc3cccnc3)C1=O)C(=O)N2C (stereo not drawn) [CBK075236] | 100 |
| CC(C)c1nccc(CN2CCC(CCN3CCCC3=O)CC2)n1 [CBK306887] | 97.469 |

| SMILES | % of control remaining [%] |
| --- | --- |
| Nc1cc(-c2cccs2)nn(Cc2ccccc2Cl)c1=O [CBK282884] | 120.314 |
| CC(C)C(=O)N1C[C@H]2N(C)C(=O)c3ccccc3C(=O)[C@@]2(C)C1 [CBK284568] | 159.167 |
| COc1ccc(Cn2c(C3CCNCC3)cc3cccnc32)cc1 [CBK285077] | 142.743 |
| Clc1ccc(COc2ccnc(N3CCCNCC3)n2)cc1Cl [CBK091550] | 58.1273 |
| N#CCCN(CCC#N)C(=O)CN1C(=O)c2ccccc2C1=O [CBK267100] | 155.761 |
| O=C(CCn1c(-c2ccccc2)c(-c2ccccc2)c2ccccc21)N/N=C/c1cccc(O)c1 [CBK262348] | 65.1139 |
| CC(C)c1cc(C(=O)N2CC(N3CCOCC3)C2)nc2ncnn12 [CBK306572] | 114.738 |
| CN(C)CCNc1nc(-c2cccnc2)nc2ccccc12 [CBK264471C] | 100 |
| COc1cc(CNc2cc(-c3cccc4cccnc34)ncn2)cc(OC)c1OC [CBK091179] | 105.916 |
| O=C(/C=C/c1cn([C@H]2C[C@@H](O)[C@@H](CO)O2)c(=O)[nH]c1=O)ON1C(=O)CCC1=O [CBK201188] | 186.405 |
| CNC(=O)c1ccc(-c2cccc(Cl)c2Cl)nc1N1CCOCC1 [CBK106215] | 97.8707 |
| Cc1nn(C)cc1-c1cncn1C(C)(C)CN1CCC(C)CC1 [CBK281740] | 139.871 |
| COc1ccccc1CC(C)NC(=O)c1csc(C(C)=O)c1 (stereo not drawn) [CBK282517] | 74.3703 |
| COc1ccc(CCNC(=O)c2cnoc2-c2ccc(C)cc2)cc1 [CBK153731] | 97.9012 |
| Cc1ccc(-c2cc(C(=O)NC3CN4CCC3CC4)[nH]n2)o1 (stereo not drawn) [CBK283276] | 125.009 |
| Clc1ccc(COc2cccc3c2CCCC3)cn1 [CBK002634] | 90.7821 |
| Nc1ncc(-c2ccc(Cl)cc2)c(C2CCCN(C(=O)Cc3c[nH]c4ccccc34)C2)n1 (stereo not drawn) [CBK285574] | 86.0259 |
| CS(=O)(=O)c1ccc(-n2nnnc2CNC2(CO)CCCC2)cc1 [CBK304134] | 95.5962 |
| CC1CCCCN1C(=O)Cn1cnc2c(Cl)cc(Cl)cc2c1=O (stereo not drawn) [CBK306149] | 114.853 |

Two entries from above, comma-delimited:
SMILES,% of control remaining [%]
N#CCCN(CCC#N)C(=O)CN1C(=O)c2ccccc2C1=O [CBK267100],155.761
COc1ccc(CCNC(=O)c2cnoc2-c2ccc(C)cc2)cc1 [CBK153731],97.9012
